These are yes or no findings as the source states them, for the method shown. Binding seen in cells or lysates may run through a third protein. Some results given as binding are weak or reduced against the parent protein; the word gives no strength.

The assay concerns the target T1, Retinoid x receptor alpha (RXRα), mouse (mouse) (UniProt P28700).
T1 sequence: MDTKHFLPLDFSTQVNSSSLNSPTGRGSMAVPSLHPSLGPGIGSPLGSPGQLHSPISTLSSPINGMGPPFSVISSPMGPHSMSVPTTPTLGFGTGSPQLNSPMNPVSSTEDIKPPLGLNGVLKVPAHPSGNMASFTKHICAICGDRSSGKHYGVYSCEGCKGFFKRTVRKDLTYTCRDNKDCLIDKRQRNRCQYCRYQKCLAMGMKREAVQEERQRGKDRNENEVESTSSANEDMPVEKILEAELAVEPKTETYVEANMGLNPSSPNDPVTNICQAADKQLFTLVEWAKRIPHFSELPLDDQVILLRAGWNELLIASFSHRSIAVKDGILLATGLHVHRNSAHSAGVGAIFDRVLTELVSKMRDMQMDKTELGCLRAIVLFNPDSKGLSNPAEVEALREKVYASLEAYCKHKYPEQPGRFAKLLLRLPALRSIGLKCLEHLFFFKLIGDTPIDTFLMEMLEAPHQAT
Kind of assay: co-IP; nuclear extracts of transfected COS-7 cells (10 μM Wy for 48 h), no DNA; 25 mM HEPES pH 7.9, 200 mM KCl, 1 mM EDTA, 0.5% NP-40, 10% glycerol; 2 μg PPARα or RXRα antibody at 4°C for 12 h, protein G-Sepharose; Western blot with anti-HNF4α antibody. On the technique in general: In western blotting, separated proteins are transferred to a membrane and probed.

B1: Hepatocyte nuclear factor-4 alpha (HNF4α), wild type, human (protein, UniProt P41235-2 1-464)
chain: MRLSKTLVDMDMADYSAALDPAYTTLEFENVQVLTMGNDTSPSEGTNLNAPNSLGVSALCAICGDRATGKHYGASSCDGCKGFFRRSVRKNHMYSCRFSRQCVVDKDKRNQCRYCRLKKCFRAGMKKEAVQNERDRISTRRSSYEDSSLPSINALLQAEVLSRQITSPVSGINGDIRAKKIASIADVCESMKEQLLVLVEWAKYIPAFCELPLDDQVALLRAHAGEHLLLGATKRSMVFKDVLLLGNDYIVPRHCPELAEMSRVSIRILDELVLPFQELQIDDNEYAYLKAIIFFDPDAKGLSDPGKIKRLRSQVQVSLEDYINDRQYDSRGRFGELLLLLPTLQSITWQMIEQIQFIKLFGMAKIDNLLQEMLLGGSPSDAPHAHHPLHPHLMQEHMGTNVIVANTMPTHLSNGQMSTPETPQPSPPGGSGSEPYKLLPGAVATIVKPLSAIPQPTITKQEVI
Take B1: the binding result is given as “binds”.
